Here are results for 2 substances from PMC3582556.

No constants are given. Whether binding was seen depends on the method and setting. In cells and extracts the contact can be indirect. Tags and fused reporters may be left off the sequences shown.

This assay addresses T1, cYFP-VirF (Agrobacterium) (UniProt P15597).
T1 sequence: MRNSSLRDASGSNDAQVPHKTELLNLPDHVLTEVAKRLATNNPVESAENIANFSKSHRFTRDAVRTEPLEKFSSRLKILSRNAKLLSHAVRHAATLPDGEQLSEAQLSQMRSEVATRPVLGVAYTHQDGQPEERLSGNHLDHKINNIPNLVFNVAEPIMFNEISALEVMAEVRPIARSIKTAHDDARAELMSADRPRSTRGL
The assay can be described thus: split reporter; BiFC with nYFP and cYFP fusions; construct pairs mixed 1:1 (w/w), microbombarded into N. benthamiana leaves, expressed 36-48 h at 22-24 C, confocal microscopy.

“AtGnTL1-91N-nYFP (Arabidopsis thaliana) (domain or fragment)”: the binding entry was “no binding”. To “nYFP-tagged AtGnTL (full-length) (Arabidopsis thaliana)” belongs “no binding”.
